According to PubChem BioAssay AID1347423 (Functional Genomics Laboratory (NCATS/FGL), 2020):
Among all 52,000 sequences or so, about 210 (0.4%) were called active.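 How the source made its calls: active means gene whose silencing raises cell survival under the drug, median off-target-corrected z-score across its silencing RNAs 2 or more; inactive means the rest.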 Some of the results follow.

Experiment: Resistance to Poly (ADP-Ribose) Polymerase inhibitor: Gene Identification via Genome-wide siRNA Screen
Settings: mouse BRCA2 R2336H ES cells, olaparib, CellTiter-Glo viability; stronger effect = higher value
Outline: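 Mouse BRCA2 R2336H ES cells were reverse-transfected with siRNA (20 nM final), treated at 48 h with 500 nM olaparib, and read by CellTiter-Glo after 72 h. Scores: MAD-based z per siRNA, median per gene, seed off-target correction.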

Q: Which z-score does the source give for CUUUUCAAGCAGGAGAGUUTT against Mterf here?
A: inactive: -0.52

Q: With GGUUGCACUACUAAGUGUCTT against Rdhe2 as the sequence, how does the z-score read?
A: inactive: 0.388

Q: For CCUGCAUCGUACGCUACUUTT against Rnf110, which z-score is on record?
A: inactive: 1.09

Q: For GAACAAGGAGAAAUUCUUGTT against Ms4a4c, which z-score is on record?
A: inactive: 1.38

Q: For GGAGAAGAUGAUGUACUGUTT against Bub1b, which z-score is on record?
A: inactive: 0.588

Q: With “GGAAGAUGGCACUAUUCUCTT against 4930444A02Rik” as the sequence, how does the z-score read?
A: inactive: -0.025

Q: Which z-score does the source give for GGCACAUUCAACAACAUUUTT against Zfp592 here?
A: inactive: 0.739

Q: For GGUGAACACUCUUUUGGAATT against Rab11fip2, which z-score is on record?
A: inactive: -0.0884

Q: With “GGAAGAAGAACCAAAGCCCTT against 1110005A23Rik” as the sequence, how does the z-score read?
A: inactive: -0.851

Q: With GGCUCCAUCAAGAAAAGUUTT against Usp21 as the sequence, how does the z-score read?
A: inactive: -0.958

Q: Which z-score does the source give for GGCGUGUGCAAGAAAAUCGTT against Cacng3 here?
A: inactive: 0.00466

Q: For “GGAGUUCCAGAAGCUUCUATT against A230074B11Rik”, which z-score is on record?
A: inactive: -1.3

Q: Which z-score does the source give for CGCUCAAACCAAAGUUCCUTT against Lin28b here?
A: inactive: 0.427

Q: With GGAGAUGGACUCACUGAUGTT against Zfp31 as the sequence, how does the z-score read?
A: inactive: 2

Q: With GCUGAGUCCAUGUCUGUUGTT against Coro2a as the sequence, how does the z-score read?
A: inactive: 0.0688

Q: For CCAGAUGCUCGAUUCAGUGTT against Crim1, which z-score is on record?
A: inactive: -0.403

Q: With “GCCUGUGUAUUCUCGCUAUTT against 2810468K17Rik” as the sequence, how does the z-score read?
A: inactive: 1.63

Q: For GCGAUAUGCAGAGAAGCGGTT against Prpf8, which z-score is on record?
A: inactive: -2.54

Q: With “GGUCAUACAUUUGUCAUCATT against E130319B15Rik” as the sequence, how does the z-score read?
A: inactive: -1.72

Q: For CGCAAUUUUGAACAUGUGUTT against Kctd7, which z-score is on record?
A: inactive: -0.28

Q: For GGAUGACCAGAACUUCAGUTT against AI894139, which z-score is on record?
A: inactive: 0.902

Q: With GGGACUUUGAGAAAAUCUUTT against Scgn as the sequence, how does the z-score read?
A: inactive: -1.33

Q: With GGUGGUUACCAUAGCUGGUTT against Arid2 as the sequence, how does the z-score read?
A: inactive: -1.52

Q: With GGCUACUGGGCUUGUUGAATT against Cyp2d22 as the sequence, how does the z-score read?
A: inactive: -0.678

Q: For GCAUUUCGUACAGCAGAAATT against Pip5k2c, which z-score is on record?
A: inactive: -0.0557

Q: With “CGAGGAGAAUUUGUAAUGATT against 4930469P12Rik” as the sequence, how does the z-score read?
A: inactive: -0.364

Q: Which z-score does the source give for GGAAGAGAGAGAGCUUAUUTT against Abca6 here?
A: inactive: 0.368

Q: With CCUUUGAUCAAUUCUGAGUTT against Glb1 as the sequence, how does the z-score read?
A: inactive: 1.13

Q: With “GGAAUCUUCUGAAUUGCCUTT against 2510004L20Rik” as the sequence, how does the z-score read?
A: inactive: 0.364

Q: For GGAAGUUACUGUCGAGUACTT against Olfr115, which z-score is on record?
A: inactive: -1.27

Q: For GGAAUCUGGGCAAAUCUGGTT against Kcnab2, which z-score is on record?
A: inactive: -0.911

Q: For GCUAAUCCGGGCAAAAUCGTT against Gbp4, which z-score is on record?
A: inactive: -1.61

Q: For GGGACCUUAGAAGAUUGGGTT against Sart3, which z-score is on record?
A: inactive: 1.34

Q: With GCCUCAGAAAAACAUCUAUTT against BC008103 as the sequence, how does the z-score read?
A: inactive: 2.16

Q: With GGAAUCCUGCCAUGAUGCATT against Ubqln2 as the sequence, how does the z-score read?
A: inactive: -2.34

Q: Which z-score does the source give for GGAGAUUGGAUCCCGAAACTT against Pxn here?
A: inactive: 0.471

Q: For GGGUUUGCACUAGUUUAUUTT against Rap1a, which z-score is on record?
A: inactive: 0.992

Q: Which z-score does the source give for GGAAAAGAUUGGUGAAGGUTT against Gjb5 here?
A: inactive: -0.272

Q: For “CCCAGCUCUUAUGUUUACCTT against 1810038H16Rik”, which z-score is on record?
A: inactive: 1.36

Q: For GGAUCUGGAUUAGAUAGAUTT against Wnt3, which z-score is on record?
A: inactive: -0.798

Q: Which z-score does the source give for CCAUACUGAACGCGCUUCUTT against Klhl5 here?
A: inactive: 0.297

Q: Which z-score does the source give for “UUCCAGAAAAGAAGUGCACTT against 9230102D03Rik” here?
A: inactive: 0.398

Q: For GUAGUAACUCCUACAUUGATT against Olfr133, which z-score is on record?
A: inactive: 0.535

Q: For GCAUGAGGCUUUAUUUGACTT against Wwp2, which z-score is on record?
A: inactive: 0.482

Q: Which z-score does the source give for GGUACAAUGGCACUGUCACTT against Chrna5 here?
A: inactive: 1.8

Q: Which z-score does the source give for GGUCAAAGUCAAAGUUUUGTT against Aim1 here?
A: inactive: -0.0621

Q: For CCAAGCCUAAUAAAAUUCCTT against Lisch7, which z-score is on record?
A: inactive: -0.274

Q: With “GGAAAUGCUUCUGAGCUAGTT against 5830417C01Rik” as the sequence, how does the z-score read?
A: inactive: 0.677

Q: For CCUUAGGAUUUGAACGCGUTT against Cutc, which z-score is on record?
A: inactive: 0.217

Q: With “GCAACAAUAUUGCUCUAGATT against A830023L05” as the sequence, how does the z-score read?
A: inactive: 0.95

Q: With GGCUGCACAUCUGAGUACCTT against Itgb2l as the sequence, how does the z-score read?
A: inactive: 0.216

Q: With CCUACUUGCAGAUUGUUUUTT against Rapgef6 as the sequence, how does the z-score read?
A: inactive: 0.784

Q: For GGCUGUCCACCGUAUGUAATT against Xab1, which z-score is on record?
A: inactive: 0.657

Q: For GGAAUCCUCACCAGCUUAATT against Rga, which z-score is on record?
A: inactive: 0.58

Q: For GGUUUGAGAAAUGACUUAATT against Narg1, which z-score is on record?
A: inactive: 0.936

Q: With GCGAUGCACUGUGUAAACUTT against Ccr6 as the sequence, how does the z-score read?
A: inactive: 0.884

Q: For “GGUUAGCUGAAAGUUGAGGTT against D6Ertd538e”, which z-score is on record?
A: inactive: 0.975

Q: With GGACUUGUCUUUGACACGCTT against Nt5c2 as the sequence, how does the z-score read?
A: inactive: 2.18

Q: For “CCUGUCAAUGCAAGAAUGGTT against B230343H07Rik”, which z-score is on record?
A: inactive: 0.082

Q: With “CGAGAUCACAGACCAAUUGTT against 9430059P22Rik” as the sequence, how does the z-score read?
A: inactive: 0.262

Q: For “GGCCUGUUUUGUACUUUUATT against 2010003I19Rik”, which z-score is on record?
A: inactive: -0.919

Q: Which z-score does the source give for CCGCUUUUGGAACUAUGAGTT against Stard3nl here?
A: inactive: -0.403

Q: For GGUCCUUUUUUCAACCAGCTT against Sh3gl1, which z-score is on record?
A: inactive: -0.138

Q: For CCAGAAUGGCGGGUAUUUGTT against Fbln5, which z-score is on record?
A: inactive: 1.18

Q: For CGAGGAGCUAGCUGUAAAUTT against Gsc, which z-score is on record?
A: inactive: 0.776

Q: For CCUCAACUCCGACAAACAGTT against D8Wsu49e, which z-score is on record?
A: inactive: 1.76
